Measured values as given in PubChem BioAssay AID493014 (National Center for Advancing Translational Sciences (NCATS), 2011).
Out of some 340,000 compounds screened, about 170 (0.05%) were called active. The shares of active, inactive and inconclusive entries below differ from those in the screen. Calls come from the whole dose curve; as a rule, active = well fitted inhibition curve with a large enough effect in the signal ratio, with a control signal flat (not every such curve was filed as active); inconclusive = small, poorly fitted or top-dose-only effect, or effect the other way, or a change in a side signal; inactive = flat fitted curve, though single readings scatter; the % refers to the signal ratio. Where the call is inconclusive, the potency comes from a doubtful curve fit.

Experiment: qHTS Assay to Find Inhibitors of Chronic Active B-Cell Receptor Signaling;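 for activity change, negative = inhibition: plate controls were basal doxycycline-induced cells for no effect and cells given 10 µM MG132 for full effect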
Conditions: ABC-DLBCL IkBa-CBG/CBR reporter, luminescence ratio (green luciferase fused to IkBa over red control in TMD8 lymphoma cells), 4 h; activity change, negative = inhibition: at 46.1 µM (top of the series)
In short: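 Cell line TMD8 (human ABC DLBCL), stably expressing tet-inducible CBG68-IkBa fusion and CBR; IMDM/0.5% FBS; cpd up to 46 uM; dox induction, 4 h, 37C/5% CO2; dual luminescence; green/red ratio; MG132 control.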
Potency is the fitted concentration of half-maximal effect.

| Compound | activity change, negative = inhibition | Potency |
| --- | --- | --- |
| CC(=O)Nc1nc2c(C)cc(NC(=O)C3CCCCC3)cc2s1 | inconclusive: 2.57% |  |
| CSc1nc(C)cc(OCC(=O)n2nc(C)cc2C)n1 | inconclusive: -0.435% |  |
| Cc1c(C(=O)c2ccc(Cl)c([N+](=O)[O-])c2)c2ccccn2c1CCC#N |  | inconclusive: 29.1 µM [falling, partial curve, poor fit] |
| COc1ccccc1-n1c(SCC(=O)NC(C)(C)C)nc(O)c(Cc2ccccc2)c1=O |  | inconclusive: 35.5 µM [falling, single point] |
| CCCCOCCCn1c(-c2ccco2)nc2nc3ccccc3nc21 | inactive: 15.9% |  |
| CCN(CC(=O)Nc1ccccc1OC)CC(=O)Nc1ccccc1-c1ccccc1 | inactive: 1.62% |  |
| CCC(C)NC(=O)c1cn(CC)c2cc(N3CCN(C(=O)c4ccco4)CC3)c(F)cc2c1=O (centres undefined) | inconclusive: 15% |  |
| COc1cc(C(CC(=O)N2CCN(c3ccccc3)CC2)c2c(OC)cc(OC)c3ccc(=O)oc23)cc(OC)c1OC (centres undefined) | inconclusive: -0.171% |  |
| CCOC(=O)c1cnn(-c2ccc(C)cc2)c1N |  | inconclusive: 1.03 µM [rising, full curve, poor fit] |
| C=CCOC(=O)CCC(=O)Nc1cccc2ccccc12 | inconclusive: 4.11% |  |
| Cn1c(=O)c2c(ncn2CC(=O)OCC(=O)Nc2ccc(F)cc2F)n(C)c1=O | inactive: -1.2% |  |
| Cc1ccc(CNC(=O)c2ccc(N3CCC4(CC3)CC(c3cccc(Br)c3)=NO4)c(N)c2)cc1 | inactive: 0.851% |  |
| O=C(Nc1cccc(-c2cnc3ccccc3n2)c1)c1cccc(NC(=O)c2ccco2)c1 | inconclusive: -28.4% |  |
| CC1(C)CCC(=O)N2CC[C@H]3C[C@H](OC(=O)Nc4ccccc4)C[C@@H]1[C@H]32 |  | inconclusive: 20 µM [falling, single point] |
| CC(C)(C)c1nc2cc(Cl)c([N+](=O)[O-])cc2o1 | inconclusive: 6.93% |  |
| CCC(=O)N(CCc1ccccc1)Cc1cc2cccc(C)c2[nH]c1=O | inactive: 1.38% |  |
| CCCN(CCC)C(=O)CC(c1ccccc1)c1ccc(C)cc1O (centres undefined) |  | inconclusive: 18.4 µM [rising, single point] |
| Cc1cccc(OCCn2c(=O)n(C)c3ccccc32)c1 | inactive: -9.13% |  |
| CC(C)NC(=O)Nc1ccc2c(c1)C(=O)N([C@H](C)CO)C[C@H](C)[C@@H](CN(C)C(=O)Nc1ccc3c(c1)OCO3)O2 | inconclusive: 0.341% |  |
| Cc1nn(Cc2cccc(C(=O)N3N=C(C(F)F)CC3(O)C(F)F)c2)c(C)c1[N+](=O)[O-] (centres undefined) |  | inconclusive: 29.1 µM [falling, single point] |
| COc1ccc(-c2nc3sc(CCNC(=O)c4cc(OC)c(OC)c(OC)c4)c(C)n3n2)cc1 | inconclusive: -1.37% |  |
| CNc1nc(SCc2ccc(C)cc2)nc2c1CCCC2 |  | inconclusive: 28.2 µM [falling, single point] |
| Cn1c(=O)c2c(nc(NCc3ccc4c(c3)OCO4)n2Cc2ccccc2F)n(C)c1=O | inconclusive: -7.01% |  |
| O=C(Nc1ccncc1)c1ccc(Cl)c(S(=O)(=O)N2CCCC2)c1 | inconclusive: -16.8% |  |
| COc1cccc(NC(=O)CN(C)C(C)C(=O)Nc2ccc(C#N)cc2)c1 (centres undefined) |  | inconclusive: 3.16 µM [falling, single point] |
| CC(C)(C)C(=O)Nc1ccc(N2CCN(c3ccc(C(F)(F)F)cn3)CC2)nc1 | inconclusive: 13% |  |
| Cc1cc(Cl)ccc1NC(=S)NC1CCCC1 | inconclusive: -6.48% |  |

| Compound | activity change, negative = inhibition | Potency |
| --- | --- | --- |
| O=C(CSC1=NS(=O)(=O)c2cc(F)ccc2N1)Nc1ccccc1F |  | inconclusive: 6.51 µM [falling, partial curve, poor fit] |
| Cc1cc(NC(=O)CSc2nnc(-c3cccs3)n2N)no1 | inconclusive: -1.55% |  |
| Cc1cc2oc(=O)cc(CN(C)Cc3ccccc3F)c2cc1Cl | inconclusive: 12.7% |  |
| CCC(=O)Oc1oc(-c2ccccc2)nc1C=Nc1ccccc1OC | inactive: -21.2% |  |
| CC1CCc2sc3ncnc(N4CCN(C)CC4)c3c2C1 (centres undefined) |  | inconclusive: 17.8 µM [falling, single point] |
| CCN1CC(CN(C)Cc2cn(-c3ccc(C)cc3)nc2-c2cccc(C)c2)CC1=O (centres undefined) |  | inconclusive: 35.5 µM [falling, single point] |
| COc1ccc(NC(=O)COc2ccccc2)cc1Cl | inconclusive: 5.99% |  |
| Cc1ccc(N(CC(=O)NCC2CCCO2)S(C)(=O)=O)cc1Cl (centres undefined) | inconclusive: 10.4% |  |
| COc1ccc(N2CC(C)Cn3c2nc2c3c(=O)n(Cc3ccccc3)c(=O)n2C)c(OC)c1 (centres undefined) |  | inconclusive: 35.5 µM [rising, partial curve, poor fit] |
| C/C(=N\Nc1nnc2c3ccccc3n(C)c2n1)c1ccc(C)o1 | inconclusive: -14% |  |
| O=C(c1ccccc1)c1cnc(-c2ccc(Cl)cc2)s1 |  | inconclusive: 0.501 µM [falling, full curve, poor fit] |
| CCn1c(=O)cc(OCC(=O)NCCC(C)C)c2ccccc21 | inconclusive: 6.05% |  |
| CCCCN(CCCC)S(=O)(=O)c1ccc(NC(=O)c2cccs2)cc1 | inconclusive: 27.1% |  |
| O=C(O)c1cc(-c2cccc(Cl)c2)nc2nc(N3CCCCC3)sc12 | inconclusive: 8.65% |  |
| CCC1(C)Cc2ccccc2-c2nc3n(c(=O)c21)CCS3 (centres undefined) | inactive: 2.2% |  |
| Cc1ccc(C)c(Sc2ccc(NC(=O)CCN3C(=O)NC4(CCCC4)C3=O)cc2)c1 |  | inconclusive: 16.4 µM [falling, partial curve, poor fit] |
| Cc1c(N=C(N)/N=C(\N)Nc2ccc(Br)cc2)c(=O)n(-c2ccccc2)n1C | inconclusive: -12.5% |  |
| COc1ccc(-n2c(SCC(=O)Nc3ccc(Cl)c(C)c3)nc3n[nH]c(C)c3c2=N)cc1 | inconclusive: -7.27% |  |
| O=S1(=O)CCOC[C@H](c2ccccc2)N1Cc1cccc(Cl)c1 | inactive: -0.758% |  |
| COc1ccc(NC(=O)c2cccc(S(=O)(=O)N3CCCCCC3)c2)cc1 | inactive: -0.378% |  |
| CCCCc1nc2cc(C(=O)NC3CCOC(C)(C)C3)ccc2o1 (centres undefined) | inconclusive: 0.968% |  |
| O=C(COc1ccc(Cl)cc1Cl)NCc1ccncc1 | inconclusive: 2.05% |  |
| CCOC(=O)c1c(NC(=O)c2ccc(S(=O)(=O)N3CCC(C)CC3)cc2)sc2c1CCN(C)C2 | inconclusive: 9.55% |  |
| N#Cc1ccc(C(=O)Nc2nc(SCc3ccc(Cl)cc3)n[nH]2)cc1 | inconclusive: -2.4% |  |
| Cc1ccc(N2CC(C(=O)Nc3nc4ccc(S(C)(=O)=O)cc4s3)CC2=O)cc1C (centres undefined) | inconclusive: -28.3% |  |
| CCOC(=O)C1CCN(Cc2cc(Cl)c3ccccc3c2O)CC1 | inactive: -17.8% |  |
| CCC(=O)NCCc1nc2cc(NC(=O)c3ccccc3Cl)ccc2n1C |  | inconclusive: 12.6 µM [falling, partial curve, poor fit] |

Single entries from the entries so far:
activity change, negative = inhibition with CCn1c(=O)cc(OCC(=O)NCCC(C)C)c2ccccc21 is entered as inconclusive: 6.05%
activity change, negative = inhibition with N#Cc1ccc(C(=O)Nc2nc(SCc3ccc(Cl)cc3)n[nH]2)cc1 is entered as inconclusive: -2.4%
Potency with CC1CCc2sc3ncnc(N4CCN(C)CC4)c3c2C1 (centres undefined) is entered as inconclusive: 17.8 µM [falling, single point]

Not a retest: entries from further up.

| Compound | activity change, negative = inhibition | Potency |
| --- | --- | --- |
| O=C(Nc1cccc(-c2cnc3ccccc3n2)c1)c1cccc(NC(=O)c2ccco2)c1 | inconclusive: -28.4% |  |
| CC1(C)CCC(=O)N2CC[C@H]3C[C@H](OC(=O)Nc4ccccc4)C[C@@H]1[C@H]32 |  | inconclusive: 20 µM [falling, single point] |

Additional results.

| Compound | activity change, negative = inhibition | Potency |
| --- | --- | --- |
| C/C(=N\NC(=O)c1ccc(Cl)cc1)c1cccs1 |  | inconclusive: 17.8 µM [falling, partial curve, poor fit] |
| O=[N+]([O-])c1ccc(/C=N/n2c(CO)nc3ccccc32)s1 | inactive: 6.34% |  |
| O=C(Nc1nc2ccccc2[nH]1)c1ccc(Cl)cc1 |  | inconclusive: 3.98 µM [rising, full curve, poor fit] |
| CCc1ccc2oc(C(=O)N3CCN(C)CC3)cc(=O)c2c1 | inconclusive: -2.49% |  |
| CCCOC(=O)Nc1cccc(C(C)=O)c1 | inconclusive: 8.02% |  |
| COc1ccc(N2CCN(C(c3cccs3)C(C)NS(=O)(=O)c3ccccc3)CC2)cc1 (centres undefined) | inactive: 0.866% |  |
| CC1CN(c2nc3ccccc3nc2NS(=O)(=O)c2ccccc2)CC(C)O1 (centres undefined) | inactive: -0.25% |  |
| Cc1ccc(NC(=O)Cn2c(O)c(N=NC(=O)c3ccncc3)c3ccccc32)cc1 | inconclusive: 4.79% |  |
| CCOC(=O)c1ccc(Oc2nc(NC(C)(C)C)nc(N(C)C)n2)cc1 | inconclusive: 14.8% |  |
| COc1cccc(C(=O)N/N=C2/SCC(=O)N2CCc2ccc(OC)c(OC)c2)c1 | inconclusive: -12.5% |  |
| COc1ccc(Cl)cc1NC(=O)CN1CCCCCC1 |  | inconclusive: 25.1 µM [falling, partial curve] |
| COc1ccc(C2=CC(=O)CC(C)(C)C2)cc1OC | inactive: -4.8% |  |
| CCCCC1C(=O)CC[C@H]2[C@@H]1CC(=O)[C@@H]2C/C=C\CCCC(=O)O (some centres undefined) |  | active: 20.6 µM |
| Cc1cc(C(=O)CSc2nnnn2-c2ccccc2)c(C)n1CCc1ccccc1 | inactive: -18% |  |
| O=C(COC(=O)CSc1ccc([N+](=O)[O-])cc1)NCCCc1ccccc1 | inconclusive: -17.4% |  |
| O=C(COC(=O)/C=C/c1cccs1)Nc1ccccc1Cl | inconclusive: -2.39% |  |
| CC(=O)Nc1cc(C(=O)NCc2ccccc2Cl)ccc1Sc1ccc(F)cc1 | inconclusive: 1.78% |  |
| Cc1ccccc1/C=N/NC(=O)c1sccc1C |  | inconclusive: 23.1 µM [falling, partial curve] |
| CSc1ccccc1NC(=O)c1cc(Cl)sc1Cl | inconclusive: -1.6% |  |
| CCN(CC)S(=O)(=O)c1ccc(NC2c3ccccc3C(=O)N2Cc2ccc3c(c2)OCO3)cc1 (centres undefined) | inconclusive: -0.61% |  |
| O=C1C=C(c2cccc3c2oc2ccccc23)C[C@@H](c2ccc(F)cc2)C1 | inconclusive: 14.9% |  |
| OC(CN1CCN(c2ncc(C(F)(F)F)cc2Cl)CC1)c1ccccc1 (centres undefined) | inactive: -3.97% |  |
| CN(C)/C=N/NC(=O)c1ccccc1 | inconclusive: -3.57% |  |
| O=C(Nc1ccccc1)c1ccc(-c2ccc(Br)cc2)o1 |  | inconclusive: 18.4 µM [falling, single point] |
| COc1cc2c(cc1OC)C1=CC(=O)C(=O)N1C(C)(C)C2 |  | inconclusive: 20 µM [falling, single point] |
